{"sequences": {"note": "Chains of the proteins cited; added tags and fusions are not shown. Lines headed by an entry give the natural chain unless they say otherwise; changes in a name come on top.", "UniProt Q5VZF2": "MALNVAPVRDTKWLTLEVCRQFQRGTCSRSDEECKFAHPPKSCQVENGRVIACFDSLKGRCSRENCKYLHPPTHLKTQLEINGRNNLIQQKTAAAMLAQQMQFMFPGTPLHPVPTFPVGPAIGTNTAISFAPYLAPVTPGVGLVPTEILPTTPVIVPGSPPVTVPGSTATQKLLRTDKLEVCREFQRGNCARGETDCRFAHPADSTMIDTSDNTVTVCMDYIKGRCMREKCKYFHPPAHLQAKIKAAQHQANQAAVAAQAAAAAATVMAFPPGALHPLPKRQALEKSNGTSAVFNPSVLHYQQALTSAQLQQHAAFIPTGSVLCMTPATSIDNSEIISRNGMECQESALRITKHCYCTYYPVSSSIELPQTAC", "UniProt O43318": "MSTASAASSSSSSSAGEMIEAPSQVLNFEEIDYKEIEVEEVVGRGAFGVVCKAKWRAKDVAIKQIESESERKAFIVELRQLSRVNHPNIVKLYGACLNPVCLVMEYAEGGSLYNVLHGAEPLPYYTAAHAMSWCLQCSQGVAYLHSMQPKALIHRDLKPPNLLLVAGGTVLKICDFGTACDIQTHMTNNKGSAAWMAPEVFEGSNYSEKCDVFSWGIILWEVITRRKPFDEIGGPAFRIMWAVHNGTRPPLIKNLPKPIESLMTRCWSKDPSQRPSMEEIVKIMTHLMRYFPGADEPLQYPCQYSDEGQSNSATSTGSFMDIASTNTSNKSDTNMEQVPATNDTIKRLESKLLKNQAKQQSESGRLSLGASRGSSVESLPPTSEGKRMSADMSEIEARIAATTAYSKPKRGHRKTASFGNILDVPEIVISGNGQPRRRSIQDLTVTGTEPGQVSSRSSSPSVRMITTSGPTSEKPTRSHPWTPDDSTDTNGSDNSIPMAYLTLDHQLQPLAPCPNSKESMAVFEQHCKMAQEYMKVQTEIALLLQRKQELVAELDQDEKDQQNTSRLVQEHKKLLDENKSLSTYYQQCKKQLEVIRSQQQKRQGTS", "UniProt Q7L5Y9": "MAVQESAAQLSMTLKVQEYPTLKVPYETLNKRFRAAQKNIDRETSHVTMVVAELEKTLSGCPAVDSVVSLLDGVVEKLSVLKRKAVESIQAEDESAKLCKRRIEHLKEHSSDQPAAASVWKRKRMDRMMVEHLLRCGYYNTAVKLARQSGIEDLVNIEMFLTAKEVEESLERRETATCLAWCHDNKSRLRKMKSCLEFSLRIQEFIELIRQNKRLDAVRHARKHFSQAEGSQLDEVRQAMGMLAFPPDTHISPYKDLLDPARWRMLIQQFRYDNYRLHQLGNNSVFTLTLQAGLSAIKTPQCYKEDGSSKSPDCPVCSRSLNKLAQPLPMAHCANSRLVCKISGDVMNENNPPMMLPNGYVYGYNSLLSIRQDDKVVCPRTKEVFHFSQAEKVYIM", "UniProt P56192": "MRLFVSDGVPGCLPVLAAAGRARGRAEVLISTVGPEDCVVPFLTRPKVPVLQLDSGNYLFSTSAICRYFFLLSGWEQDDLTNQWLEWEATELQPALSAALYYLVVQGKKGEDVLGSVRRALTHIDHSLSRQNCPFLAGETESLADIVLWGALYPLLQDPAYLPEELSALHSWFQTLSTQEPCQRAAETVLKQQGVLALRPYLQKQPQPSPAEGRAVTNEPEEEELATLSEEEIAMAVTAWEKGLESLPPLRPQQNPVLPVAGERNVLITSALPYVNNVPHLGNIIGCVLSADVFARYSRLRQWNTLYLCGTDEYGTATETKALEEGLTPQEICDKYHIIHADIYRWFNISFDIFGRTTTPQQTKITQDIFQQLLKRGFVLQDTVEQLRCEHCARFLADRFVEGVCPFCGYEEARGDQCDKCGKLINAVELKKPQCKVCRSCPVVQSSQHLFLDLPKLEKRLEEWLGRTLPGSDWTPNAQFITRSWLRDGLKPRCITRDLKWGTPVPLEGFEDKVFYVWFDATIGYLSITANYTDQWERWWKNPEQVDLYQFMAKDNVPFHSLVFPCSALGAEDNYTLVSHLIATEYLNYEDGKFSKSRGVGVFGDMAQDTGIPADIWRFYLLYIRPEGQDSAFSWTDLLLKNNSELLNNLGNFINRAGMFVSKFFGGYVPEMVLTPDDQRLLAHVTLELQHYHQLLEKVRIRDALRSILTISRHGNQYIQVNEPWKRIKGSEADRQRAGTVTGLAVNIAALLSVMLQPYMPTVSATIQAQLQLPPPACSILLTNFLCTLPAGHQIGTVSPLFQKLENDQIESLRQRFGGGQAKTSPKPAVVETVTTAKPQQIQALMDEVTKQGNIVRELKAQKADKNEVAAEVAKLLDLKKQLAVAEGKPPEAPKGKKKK", "UniProt Q92918, whole entry, looked up": "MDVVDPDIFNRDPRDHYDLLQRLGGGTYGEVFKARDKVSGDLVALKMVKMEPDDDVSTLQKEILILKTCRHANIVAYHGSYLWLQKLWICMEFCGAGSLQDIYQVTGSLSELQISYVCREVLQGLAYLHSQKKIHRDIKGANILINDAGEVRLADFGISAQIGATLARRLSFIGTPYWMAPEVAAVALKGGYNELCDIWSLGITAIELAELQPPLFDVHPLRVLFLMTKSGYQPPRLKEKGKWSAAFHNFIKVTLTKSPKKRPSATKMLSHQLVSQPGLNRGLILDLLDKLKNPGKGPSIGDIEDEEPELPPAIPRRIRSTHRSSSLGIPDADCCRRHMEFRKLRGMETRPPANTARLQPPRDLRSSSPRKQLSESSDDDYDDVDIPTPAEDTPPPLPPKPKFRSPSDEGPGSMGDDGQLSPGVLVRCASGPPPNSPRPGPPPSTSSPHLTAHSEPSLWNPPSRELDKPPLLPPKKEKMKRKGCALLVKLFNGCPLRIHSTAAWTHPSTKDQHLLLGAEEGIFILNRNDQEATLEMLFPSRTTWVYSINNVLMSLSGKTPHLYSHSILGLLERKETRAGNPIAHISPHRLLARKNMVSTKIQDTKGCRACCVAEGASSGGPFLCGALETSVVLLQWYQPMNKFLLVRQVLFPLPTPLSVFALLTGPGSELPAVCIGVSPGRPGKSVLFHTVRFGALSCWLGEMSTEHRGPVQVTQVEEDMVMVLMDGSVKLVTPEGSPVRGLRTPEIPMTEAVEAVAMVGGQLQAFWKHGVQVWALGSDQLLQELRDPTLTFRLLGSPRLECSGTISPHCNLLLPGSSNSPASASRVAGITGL", "UniProt Q05BQ5, whole entry, looked up": "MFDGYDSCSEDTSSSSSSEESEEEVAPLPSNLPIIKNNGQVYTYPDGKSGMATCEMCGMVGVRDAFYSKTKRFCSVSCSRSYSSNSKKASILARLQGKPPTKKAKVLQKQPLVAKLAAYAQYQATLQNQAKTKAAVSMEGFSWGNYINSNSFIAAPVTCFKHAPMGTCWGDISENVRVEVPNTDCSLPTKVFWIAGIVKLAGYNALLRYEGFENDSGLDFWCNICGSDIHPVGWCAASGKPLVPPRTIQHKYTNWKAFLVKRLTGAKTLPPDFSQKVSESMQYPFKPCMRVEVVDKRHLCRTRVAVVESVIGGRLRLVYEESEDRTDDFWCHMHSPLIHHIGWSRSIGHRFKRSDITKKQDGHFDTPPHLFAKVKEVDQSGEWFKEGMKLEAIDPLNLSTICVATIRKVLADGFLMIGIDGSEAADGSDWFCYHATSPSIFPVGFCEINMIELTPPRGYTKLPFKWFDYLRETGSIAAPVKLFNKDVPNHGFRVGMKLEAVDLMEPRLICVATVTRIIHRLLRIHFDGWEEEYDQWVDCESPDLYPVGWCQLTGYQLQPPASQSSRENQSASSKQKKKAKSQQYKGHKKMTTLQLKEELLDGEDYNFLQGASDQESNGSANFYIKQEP", "UniProt Q9NZL9, whole entry, looked up": "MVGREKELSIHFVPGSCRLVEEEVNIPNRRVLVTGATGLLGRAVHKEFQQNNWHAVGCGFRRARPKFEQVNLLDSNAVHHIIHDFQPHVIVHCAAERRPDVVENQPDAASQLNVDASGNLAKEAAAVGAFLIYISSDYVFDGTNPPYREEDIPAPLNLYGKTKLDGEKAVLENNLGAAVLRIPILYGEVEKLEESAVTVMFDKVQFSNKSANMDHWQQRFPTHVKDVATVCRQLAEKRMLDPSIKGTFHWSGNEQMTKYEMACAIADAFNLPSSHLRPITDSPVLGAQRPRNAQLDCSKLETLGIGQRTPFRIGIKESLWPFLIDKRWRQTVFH", "UniProt Q96RQ3": "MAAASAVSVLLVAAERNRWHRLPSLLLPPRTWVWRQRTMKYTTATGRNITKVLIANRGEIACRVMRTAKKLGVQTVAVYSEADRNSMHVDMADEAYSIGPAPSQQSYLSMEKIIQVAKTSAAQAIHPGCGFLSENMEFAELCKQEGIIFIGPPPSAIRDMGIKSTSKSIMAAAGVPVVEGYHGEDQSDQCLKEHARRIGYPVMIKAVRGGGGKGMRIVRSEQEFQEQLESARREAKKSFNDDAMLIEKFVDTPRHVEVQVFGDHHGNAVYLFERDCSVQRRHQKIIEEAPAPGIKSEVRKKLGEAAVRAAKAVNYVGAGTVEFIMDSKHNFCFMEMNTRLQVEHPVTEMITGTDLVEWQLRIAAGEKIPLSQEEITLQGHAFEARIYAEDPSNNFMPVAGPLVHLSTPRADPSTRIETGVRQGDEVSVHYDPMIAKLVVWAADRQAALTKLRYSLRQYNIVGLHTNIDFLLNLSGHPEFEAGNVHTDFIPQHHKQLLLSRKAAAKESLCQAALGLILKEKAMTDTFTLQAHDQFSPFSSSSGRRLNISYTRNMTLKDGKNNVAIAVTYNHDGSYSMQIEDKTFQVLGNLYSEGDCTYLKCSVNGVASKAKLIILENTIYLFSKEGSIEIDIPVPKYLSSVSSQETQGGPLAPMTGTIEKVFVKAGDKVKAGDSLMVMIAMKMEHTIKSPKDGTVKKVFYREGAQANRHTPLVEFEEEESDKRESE", "UniProt O60449": "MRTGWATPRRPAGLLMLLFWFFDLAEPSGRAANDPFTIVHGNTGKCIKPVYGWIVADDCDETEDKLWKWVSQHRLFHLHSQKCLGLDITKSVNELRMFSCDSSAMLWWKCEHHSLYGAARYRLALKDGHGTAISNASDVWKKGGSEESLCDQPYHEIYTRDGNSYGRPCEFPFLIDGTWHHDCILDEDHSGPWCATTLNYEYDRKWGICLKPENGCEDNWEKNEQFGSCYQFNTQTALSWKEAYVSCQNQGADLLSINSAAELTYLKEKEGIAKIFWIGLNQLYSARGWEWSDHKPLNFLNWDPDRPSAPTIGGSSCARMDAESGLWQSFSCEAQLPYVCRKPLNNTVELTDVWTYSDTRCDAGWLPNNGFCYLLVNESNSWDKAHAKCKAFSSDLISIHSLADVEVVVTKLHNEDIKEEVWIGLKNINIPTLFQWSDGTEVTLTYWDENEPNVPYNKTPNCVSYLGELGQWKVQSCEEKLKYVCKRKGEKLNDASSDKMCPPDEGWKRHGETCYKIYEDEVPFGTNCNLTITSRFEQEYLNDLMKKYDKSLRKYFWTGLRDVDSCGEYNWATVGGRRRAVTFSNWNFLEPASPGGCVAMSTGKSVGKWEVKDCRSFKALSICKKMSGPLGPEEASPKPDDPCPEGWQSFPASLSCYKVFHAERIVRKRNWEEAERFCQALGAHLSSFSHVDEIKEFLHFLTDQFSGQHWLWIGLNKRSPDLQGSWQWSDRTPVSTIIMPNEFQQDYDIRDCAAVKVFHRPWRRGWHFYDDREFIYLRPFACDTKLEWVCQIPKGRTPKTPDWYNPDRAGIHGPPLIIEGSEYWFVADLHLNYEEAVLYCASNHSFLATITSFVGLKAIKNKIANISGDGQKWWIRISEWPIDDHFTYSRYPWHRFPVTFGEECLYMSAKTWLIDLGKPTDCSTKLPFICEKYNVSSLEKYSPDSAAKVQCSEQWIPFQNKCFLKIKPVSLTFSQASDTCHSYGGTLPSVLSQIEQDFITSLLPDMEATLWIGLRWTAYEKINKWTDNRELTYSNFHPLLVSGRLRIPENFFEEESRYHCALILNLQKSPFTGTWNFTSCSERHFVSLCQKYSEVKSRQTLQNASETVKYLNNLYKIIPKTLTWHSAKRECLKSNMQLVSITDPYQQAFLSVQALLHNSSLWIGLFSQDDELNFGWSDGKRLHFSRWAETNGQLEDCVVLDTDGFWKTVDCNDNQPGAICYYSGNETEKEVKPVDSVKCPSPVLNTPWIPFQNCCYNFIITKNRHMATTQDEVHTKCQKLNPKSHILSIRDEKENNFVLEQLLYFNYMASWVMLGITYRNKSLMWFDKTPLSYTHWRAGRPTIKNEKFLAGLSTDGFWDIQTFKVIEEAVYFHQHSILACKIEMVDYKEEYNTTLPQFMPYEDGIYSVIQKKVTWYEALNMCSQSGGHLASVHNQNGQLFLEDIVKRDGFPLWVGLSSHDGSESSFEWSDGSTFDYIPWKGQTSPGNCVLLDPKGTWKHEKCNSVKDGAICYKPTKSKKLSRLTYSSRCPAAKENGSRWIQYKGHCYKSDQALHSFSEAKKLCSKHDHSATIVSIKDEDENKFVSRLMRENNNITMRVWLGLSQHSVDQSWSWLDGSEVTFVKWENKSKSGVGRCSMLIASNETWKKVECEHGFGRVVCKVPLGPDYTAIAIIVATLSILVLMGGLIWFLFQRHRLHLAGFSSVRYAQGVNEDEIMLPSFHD"}, "source": "the supplement of paper PMC12067093", "about": "“Discovery and optimisation of a covalent ligand for TRIM25 and its application to targeted protein ubiquitination” (Chemical Science, 2025)", "note": "Some of the results follow.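 Further: competitive profiling in live THP-1 cells: cysteine peptides tagged with an iodoacetamide desthiobiotin (IA-DTB) probe, intensity after compound treatment relative to DMSO-treated cells.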"}
{"compound": "Cc1cc(ccc1-c1ccccc1)C(=O)N1CCCN(CC1)C(=O)CCl [compound 10]", "experiment": "probe-labelled cysteine peptide fold change vs DMSO (competition) (log2 fold change); higher = less target engagement (more negative = stronger competition)", "conditions": "10 µM; THP-1; incubation time: 4 h"}
{"target": "MBNL2_Q5VZF2_19_WLTLEVCR (UniProt Q5VZF2)", "probe-labelled cysteine peptide fold change": 0.141}
{"target": "MAP3K7_O43318_180_ICDFGTACDIQTHMTNNK (UniProt O43318)", "probe-labelled cysteine peptide fold change": 0.0358}
{"target": "MAEA_Q7L5Y9_195_SCLEFSLR (UniProt Q7L5Y9)", "probe-labelled cysteine peptide fold change": 0.0228}
{"target": "MARS_P56192_389_CEHCAR (UniProt P56192)", "probe-labelled cysteine peptide fold change": -0.00939}
{"compound": "Cc1cc(ccc1-c1ccccc1)C(=O)N1CCCN(CC1)C(=O)CCl [compound 10]", "experiment": "probe-labelled cysteine peptide fold change vs DMSO (competition) (log2 fold change); higher = less target engagement (more negative = stronger competition)", "conditions": "50 µM; THP-1; incubation time: 4 h"}
{"target": "LYRM7_Q5U5X0_97_DLLVENVPYCDAPTQK (UniProt Q5U5X0)", "probe-labelled cysteine peptide fold change": 0.0174}
{"target": "MAP4K1_Q92918_334+335_SSSLGIPDADCCR (UniProt Q92918)", "probe-labelled cysteine peptide fold change": -1.18}
{"target": "MARS_P56192_309_LRQWNTLYLCGTDEYGTATETK (UniProt P56192)", "probe-labelled cysteine peptide fold change": -0.17}
{"target": "MBTD1_Q05BQ5_288_VSESMQYPFKPCMR (UniProt Q05BQ5)", "probe-labelled cysteine peptide fold change": 0.00392}
{"target": "MAD1L1_Q9Y6D9_662_LTSLYAEHPGDCLIFK (UniProt Q9Y6D9)", "probe-labelled cysteine peptide fold change": 0.0859}
{"target": "LYST_Q99698_2223_SEDDSPGDESCPR (UniProt Q99698)", "probe-labelled cysteine peptide fold change": -1.41}
{"target": "MARC1_Q5VT66_79_GVPVSEAECTAMGLR (UniProt Q5VT66)", "probe-labelled cysteine peptide fold change": -0.213}
{"target": "MAPK12_P53778_42_DLQPVGSGAYGAVCSAVDGR (UniProt P53778)", "probe-labelled cysteine peptide fold change": -0.0208}
{"target": "MACF1_Q9UPN3_443_IQNGALNCEEK (UniProt Q9UPN3)", "probe-labelled cysteine peptide fold change": 0.511}
{"target": "LZTR1_Q8N653_667_AYLEGAGAEFCDITLLLDGHPRPAHK (UniProt Q8N653)", "probe-labelled cysteine peptide fold change": 0.0304}
{"target": "MAT2B_Q9NZL9_17_ELSIHFVPGSCR (UniProt Q9NZL9)", "probe-labelled cysteine peptide fold change": -0.177}
{"target": "MAT2B_Q9NZL9_231_DVATVCR (UniProt Q9NZL9)", "probe-labelled cysteine peptide fold change": -0.0553}
{"target": "LUC7L_Q9NQ29_97_ERDLFFELDAMDHLESFIAECDRR (UniProt Q9NQ29)", "probe-labelled cysteine peptide fold change": 0.0749}
{"target": "MBTD1_Q05BQ5_185_VEVPNTDCSLPTK (UniProt Q05BQ5)", "probe-labelled cysteine peptide fold change": 0.0195}
{"target": "MACF1_Q9UPN3_892_NDECVLEDNSQR (UniProt Q9UPN3)", "probe-labelled cysteine peptide fold change": 0.00606}
{"target": "MARS_P56192_333_ALEEGLTPQEICDK (UniProt P56192)", "probe-labelled cysteine peptide fold change": 0.101}
{"target": "MCCC2_Q9HCC0_131_VSGVECMIIANDATVK (UniProt Q9HCC0)", "probe-labelled cysteine peptide fold change": 0.177}
{"target": "MAP2K4_P45985_246_LCDFGISGQLVDSIAK (UniProt P45985)", "probe-labelled cysteine peptide fold change": -0.102}
{"target": "MAP2K2_P36507_384_RSEVEEVDFAGWLCK (UniProt P36507)", "probe-labelled cysteine peptide fold change": -0.341}
{"target": "LYAR_Q9NX58_9_VFFTCNACGESVK (UniProt Q9NX58)", "probe-labelled cysteine peptide fold change": 0.165}
{"target": "MCCC1_Q96RQ3_190_SIMAAAGVPVVEGYHGEDQSDQCLK (UniProt Q96RQ3)", "probe-labelled cysteine peptide fold change": 0.0619}
{"target": "MASTL_Q96GX5_614_ESSFEESNIEDPLIVTPDCQEK (UniProt Q96GX5)", "probe-labelled cysteine peptide fold change": -0.136}
{"target": "LY75_O60449_1089_HFVSLCQK (UniProt O60449)", "probe-labelled cysteine peptide fold change": 0.179}
{"target": "MAPK1_P28482_127_TQHLSNDHICYFLYQILR (UniProt P28482)", "probe-labelled cysteine peptide fold change": 0.39}
{"target": "LY75_O60449-2_1697_NQCTDHGADMISIHNEEENAFILDTLK (UniProt O60449)", "probe-labelled cysteine peptide fold change": 0.022}
{"target": "MAN2B1_O00754_268+273_NLCWDVLCVDQPLVEDPR (UniProt O00754)", "probe-labelled cysteine peptide fold change": 0.12}
{"target": "MAP2K2_P36507_384_SEVEEVDFAGWLCK (UniProt P36507)", "probe-labelled cysteine peptide fold change": 0.0969}
{"target": "MAP4K4_O95819_496_HLEVLQQQLLQEQAMLLECR (UniProt O95819)", "probe-labelled cysteine peptide fold change": -0.337}
{"target": "MAP4K1_Q92918_428_CASGPPPNSPR (UniProt Q92918)", "probe-labelled cysteine peptide fold change": -0.144}
{"target": "MAN2B2_Q9Y2E5_288_TPHVLWPWGCDK (UniProt Q9Y2E5)", "probe-labelled cysteine peptide fold change": 0.298}
{"target": "MCCC1_Q96RQ3_332_HNFCFMEMNTR (UniProt Q96RQ3)", "probe-labelled cysteine peptide fold change": 0.0203}
{"target": "MARK3_P27448_46_NSIASCADEQPHIGNYR (UniProt P27448)", "probe-labelled cysteine peptide fold change": -0.161}
{"target": "MBNL2_Q5VZF2_19_WLTLEVCR (UniProt Q5VZF2)", "probe-labelled cysteine peptide fold change": -0.0629}
{"target": "MAP3K7_O43318_180_ICDFGTACDIQTHMTNNK (UniProt O43318)", "probe-labelled cysteine peptide fold change": -0.294}
{"target": "MAEA_Q7L5Y9_195_SCLEFSLR (UniProt Q7L5Y9)", "probe-labelled cysteine peptide fold change": -0.369}
{"target": "MARS_P56192_389_CEHCAR (UniProt P56192)", "probe-labelled cysteine peptide fold change": -0.304}
